Experimental data as given in patent publication US20060094059A1, “Methods for identifying new drug leads and new therapeutic uses for known drugs” (Odyssey Thera, Inc., priority 2004, published 2006).
For at least one compound, name, drawing or mass did not settle the structure.

Test system: Ras:Raf complexes
Test: Protein-fragment complementation assay H-Ras:Raf
Type: cell-based, human
Text: To construct dynamic assays for protein-protein complexes, we used a protein-fragment complementation assay strategy (PCAs) in intact human cells. (A variety of other suitable assays, and reporter options, are described in detail below.) The principle of PCA is that complementary polypeptide fragments (F[1] and F[2]) of a reporter protein or enzyme will fold into an active form only if fused to two proteins which interact and bring the complementary fragments of the reporter protein into proximity. Reconstitution of the fragments of the reporter protein generates a fluorescent signal that can be quantified in intact cells, and the amount of the signal is proportional to the amount of the protein-protein complex used in constructing the assay. Given a suitable reporter type, the subcellular location of the complex can also be measured.
Reporter fragments for PCA were generated by oligonucleotide synthesis (Blue Heron Biotechnology, Bothell, Wash.), starting with the sequence of yellow fluorescent protein (YFP). First, oligonucleotides coding for polypeptide fragments YFP[1]and YFP[2] […] Next, PCR mutagenesis was used to generate the mutant fragments IFP[1] and IFP[2]. The IFP[1] fragment corresponds to YFP[1]-(F46L, F64L, M153T) and the IFP[2] fragment corresponds to YFP[2]-(V163A, S175G). […] The YFP[1], YFP[2], IFP[1] and IFP[2] fragments were amplified by PCR to incorporate restriction sites and a linker sequence, described below, in configurations that would allow fusion of a gene of interest to either the 5′- or 3′-end of each reporter fragment. The reporter-linker fragment cassettes were subcloned into a mammalian expression vector (pcDNA3.1Z, Invitrogen) that had been modified to incorporate the replication origin (oriP) of the Epstein Barr virus (EBV). […] Additionally, these vectors still retain the SV40 origin, allowing for episomal expression in cell lines expressing the SV40 large T antigen (e.g. HEK293T, Jurkat or COS). […]

C[n+]1cc2c3c(ccc2c2ccc4cc5c(cc4c21)OCO5)OCO3 [Sanguinarine]
level of the Ras:Raf complexes (intensity of the fluorescence) (FIG. 3E, compared with the vehicle alone): decrease in the level
subcellular location of the Ras:Raf complexes (FIG. 3E, in control cells complexes localized at the cell membrane): redistribution of the complexes to an intracellular structure
Assay activity (hit in Ras/Raf assay, drugs screened at 10 micromolar): Ras/Raf
